These are yes or no findings as the source states them, for the method shown. In cells and extracts the contact can be indirect. Some results given as binding are weak or reduced against the parent protein; the word gives no strength. Where a sequence is shown, tags or fusion partners need not be part of it.
Biological target: T1, Epstein-Barr virus BBRF2 protein, HA-tagged (Epstein-Barr virus) (UniProt P29882)
T1 sequence: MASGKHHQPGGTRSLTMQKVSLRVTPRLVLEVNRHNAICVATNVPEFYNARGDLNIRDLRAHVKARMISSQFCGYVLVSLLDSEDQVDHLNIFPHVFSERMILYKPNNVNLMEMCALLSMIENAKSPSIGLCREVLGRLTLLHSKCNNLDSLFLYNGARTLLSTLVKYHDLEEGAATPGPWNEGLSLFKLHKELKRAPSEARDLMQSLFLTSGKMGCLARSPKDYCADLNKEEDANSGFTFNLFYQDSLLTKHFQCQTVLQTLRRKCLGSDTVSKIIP
Experiment: co-IP; HEK293T cells cotransfected with expression plasmids; lysates after 24 h; immunoprecipitation with anti-HA antibody and G-Sepharose at 4 °C, then immunoblotting

B1: Epstein-Barr virus tegument protein BGLF2 (protein, UniProt P0CK53 1-336)
chain: MASAANSSREQLRKFLNKECLWVLSDASTPQMKVYTATTAVSAVYVPQIAGPPKTYMNVTLIVLKPKKKPTYVTVYINGTLATVARPEVLFTKAVQGPHSLTLMYFGVFSDAVGEAVPVEIRGNPVVTCTDLTTAHVFTTSTAVKTVEELQDITPSEIIPLGRGGAWYAEGALYMFFVNMDMLMCCPNMPTFPSLTHFINLLTRCDNGECVTCYGAGAHVNILRGWTEDDSPGTSGTCPCLLPCTALNNDYVPITGHRALLGLMFKPEDAPFVVGLRFNPPKMHPDMSRVLQGVLANGKEVPCTAQPWTLLRFSDLYSRAMLYNCQVLKRQVLHSY
- binding: binds

Reference: publication PMC6955869
